Most values lie at the floor of the assay. Slopes are relative: functional sequences can read slightly below zero.
Each substance was assayed on Saccharomyces cerevisiae PS128 hsf1 delta, HSF1(1-493) fusion (assay: growth estimate (transactivation domain function in HSF1 fusion, heat-shock survival) (a.u. (slope of normalised read count over time)); higher = stronger growth at 37°C, i.e. more transactivation activity). Settings: library: random library.
Method: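 Random 60-nt DNA library encoding peptides of up to 20 aa, fused to the C-terminus of yeast HSF1 residues 1-493 (C-terminal TAD deleted) and expressed from the native HSF1 promoter on a CEN plasmid in hsf1-deleted S. cerevisiae PS128. Cells were selected at 37°C on -trp 5-FOA plates for 0, 2, 4, 6 and 8 days and amplicons were sequenced. Growth estimate is the slope of a robust linear fit of total-sum-normalised read counts (normalised to the first time point) over time, using at least 2 replicates. Sequences are classed functional (TAD activity) above a threshold of -0.13, set from stop-codon control sequences.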

Substance	growth estimate
QQTVRHLLMERAHGILGAVR	< -0.25
RSFLQVV	< -0.25
YLTGLYVNSSNGPPCWRIEG	< -0.25
RRTGRFNSVGVMMGTYRLGW	< -0.25
TDHASMWFGDALRITLGSVE	< -0.25
GILAREDIVLGSSV	< -0.25
CSPVRSLFCGAVCW	< -0.25
SATMGWSQDGPRSDCRSGGH	< -0.25
ANQVVALQ	< -0.25
SHSRSVREYCGSFICPIQLV	< -0.25
WSRPRSHLQMRTHPLHRAFS	-0.199
IPHGGLRSGRKPGCRLVQAT	< -0.25
TPDHPAERVEGGGGEKKLER	< -0.25
VPPFQIGTPN	< -0.25
LWADRFTLRTIIA	< -0.25
REGDHG	< -0.25
YDCHFRSTCEPVAKVYRRRD	< -0.25
SVHSSNLEHWLEIRT	< -0.25
AKYSHSRRRHLLARASCG	< -0.25
GIPDTERQISPGLFTYAQTR	< -0.25
SESILL	< -0.25
NRLGGRSC	< -0.25
VNDGQPYDN	-0.243
KLLVIQQFTVGFYRAVRSTE	< -0.25

Substance	growth estimate
HHDVVCFRHKEIKMTVSSSR	< -0.25
AVALVSMRGKKIPDSQHLGR	< -0.25
TSYTLA	< -0.25
CGEKIAAFYAVAIRSGPVAN	< -0.25
QVEPPTIRA	< -0.25
DPTTC	< -0.25
KSLQSTP	< -0.25
RKLHRGGITPGGVSLRGSSP	< -0.25
THDERSFILRSIRGRTLRAP	< -0.25
SKLYAHVDSNPINSPMAPSA	< -0.25
GRPDLG	< -0.25
TLNLVGNFFLCSWVLVYGGL	< -0.25
PSHTIWGCNGLPRWVCRGGG	< -0.25
LHDNMEESATLPIASERVQA	< -0.25
ARWAVDGPGCAHEMCHWVLV	< -0.25
LALTPFYAIV	< -0.25
PKGRVNLLQRRCIITVEHAP	< -0.25
LDEKFIDPG	< -0.25
WPDQLLVPEVYPLLARTRR	< -0.25
AGLRHCLCTVGV	< -0.25
RRGPYVDLESFDHSYVRLYK	< -0.25
IRPLARTSTKNPPRRFISNR	-0.246
QLDSSGVRVRSTPVSSATFN	< -0.25
MWKDTSLGVVHYLEGIGSNG	< -0.25

Substance	growth estimate
GFARYVLRVGSREGLKVYIR	< -0.25
VRASLATAIMCTL	< -0.25
TLPFFYRWNYTSHQPGDPPV	< -0.25
RSLEVQRVTRGGSFPVYPYA	-0.214
GAISVHETKDVLS	< -0.25
PLRSKAKTPDTYKLIAELQP	< -0.25
GHLGLE	< -0.25
SELFKDLPPELRTV	< -0.25
LHEVS	< -0.25
RLYQMVRNQYIIRAFLLLLP	< -0.25
VTLLREPRPTQSIFSLRGRA	< -0.25
AVLYYGYGLLMAFSSVRRKF	< -0.25
NYWRG	< -0.25
YGLF	< -0.25
SPLAVISEALATSRGHYYAH	< -0.25
LRKRDRGAASFTALGFRLRY	< -0.25
TGDKWQAAQNKSLGQAPHLC	< -0.25
GCLRSAIGVFMGSTDQLETA	< -0.25
QLQAAKSNSIILTRGTQGKV	< -0.25
GKLVPLINSVMLWTHRQNPG	< -0.25
DPVSLAYRDFWDY	0.0385
DTKALLVQSGCKIETAR	< -0.25
QVIACAR	< -0.25
AGAQHPLRHRITP	< -0.25

Substance	growth estimate
PVRS	< -0.25
ELYRANGQSR	< -0.25
VVIRLGRRLLFARH	< -0.25
REVLTRPPLLILVVCTHSGD	< -0.25
VTPAGAHRLC	< -0.25
RGTFFRENLLRARVDV	< -0.25
VSPVISIGDNSRQNASVPLE	-0.241
LHQVCPSVLMRNSCYANRNP	< -0.25
LVRVLSHWN	< -0.25
RSVFA	-0.243
TECLSIET	< -0.25
LIAKNYMHVPWVKH	< -0.25
NWQRAIGRQLGRSDGPCWTT	< -0.25
SVAAELCRCMPPVNLPILVR	< -0.25
PSKLGIYTLLKRLGR	< -0.25
AGVPPYEEGGKK	< -0.25
RRRRI	< -0.25
FNGEGSDCFGVGFNK	< -0.25
PLMSRRHT	-0.243
ASLAIDRWE	< -0.25
YSHRVGSVLGPGALHMADTW	-0.172
YRVGIWKQSHVEGLSW	< -0.25
LQQLTENYRGWK	< -0.25

Retrieved one by one from above:
Substance	growth estimate
ASLAIDRWE	< -0.25
NWQRAIGRQLGRSDGPCWTT	< -0.25
RSVFA	-0.243
PSKLGIYTLLKRLGR	< -0.25
REVLTRPPLLILVVCTHSGD	< -0.25
YRVGIWKQSHVEGLSW	< -0.25

Reference: the supplement of paper PMC5949888
